Laboratory results: patent publication US4374857A, “Method of inhibiting L-tryptophan to serum albumin binding” (Her Majesty the Queen in right of Canada, as represented by …, priority 1982, dated 1983)
At least one compound was matched to its structure with a doubt left.

Amino acid sequences for entries named in this document (tags omitted). Residues count along the entry.
UniProt P02768, 25-609: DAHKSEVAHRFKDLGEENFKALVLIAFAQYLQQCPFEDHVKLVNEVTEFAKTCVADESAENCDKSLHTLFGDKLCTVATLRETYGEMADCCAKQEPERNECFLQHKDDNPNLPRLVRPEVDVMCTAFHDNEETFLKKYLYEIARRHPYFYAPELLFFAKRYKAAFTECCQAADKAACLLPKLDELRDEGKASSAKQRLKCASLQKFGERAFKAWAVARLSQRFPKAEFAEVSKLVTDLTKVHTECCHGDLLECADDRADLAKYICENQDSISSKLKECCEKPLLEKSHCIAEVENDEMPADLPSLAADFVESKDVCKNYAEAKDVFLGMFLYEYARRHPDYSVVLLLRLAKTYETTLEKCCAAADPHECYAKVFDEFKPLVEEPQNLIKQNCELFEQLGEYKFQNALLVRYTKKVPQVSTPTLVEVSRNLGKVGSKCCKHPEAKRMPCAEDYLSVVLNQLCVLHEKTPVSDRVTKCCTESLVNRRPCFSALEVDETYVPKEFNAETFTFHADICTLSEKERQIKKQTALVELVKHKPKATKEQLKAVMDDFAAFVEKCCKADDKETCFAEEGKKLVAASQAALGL

Target: T1, human serum albumin (Homo sapiens, UniProt P02768)
T1 construct: purchased Sigma, St. Louis, MO
Assay: Equilibrium dialysis of 14C-L-TRP binding to human serum albumin in presence of ligands (Scatchard plots)
Experimental: Human serum albumin (Fraction V) was purchased from Sigma, St. Louis, MO. The protein was defatted with activated charcoal according to Chen, R. F. (1967), J. Biol. Chem 242: 173-181 and monomeric albumin purified as previously described in Soltys, B. J. and Hsia, J. C. (1977), J. Biol. Chem. 252: 4043-4048. Protein concentration was determined by absorption of ultraviolet light, assuming E279 nm^1% =5.30 according to Clark, P., Rachinsky, M. R. and Foster, J. F. (1962), J. Biol. Chem. 237: 2509-2513. The sodium salt of cis-parinaric acid was dissolved in 1×10^-4 Malbumin in Ringer's buffer. The Ringer's buffer contained 110 mM NaCl, 5 mM KCl, 1.2 mM MgSO4, 1.2 mM KH2 PO4 and 10 mM Na2 HPO4 at a pH of 7.4 at 37° C. L-tryptophan, stearate and bilirubin were also purchased from Sigma, St. Louis, MO. cis-parinaric acid was purchased from Molecular Probes Inc., Plano, TX. L-[side chain-3 -^14 C]-tryptophan (^14 C-L-TRP) was purchased from New England Nuclear, Boston, Mass. […]
The cells were sealed with tape and incubated with slight oscillation at 37±0.5° C. in a jacketed incubator (Model 3314, Forma Scientific, Marietta, OH). […] These were counted in 6 ml plastic scintillation vials (Canlab) containing 5 ml Aquasol (New England Nuclear) in a liquid scintillation counter (LS 9000, Beckman, Irvine, CA). […]

SMILES: CCCCCCCCCCCCCCCCCC(=O)O [stearate]
- effect on specific (primary site) L-TRP binding capacity of albumin (4.0 moles of ligand per mole albumin): residue binding capacity remains
- effect on L-TRP binding to albumin (one molar equivalent of ligand): little effect
